These are yes or no findings as the source states them, for the method shown. Some entries that bind do so weakly or less than the wild type.
What was measured:
[1] = target: GST-PDZI′ recombinant Grasp55 protein (murine); test: HTRF, biotinylated peptide and GST fusion
[2] = target: GST-PDZI′ recombinant Grasp55 protein (murine); test: HTRF competition by unlabelled JAM-C peptide, relative affinity

Protein sequences, listed by entry. Tags and fused reporters are not part of them. Lines headed by an entry give the natural chain unless they say otherwise; changes in a name come on top.
UniProt Q9JI59: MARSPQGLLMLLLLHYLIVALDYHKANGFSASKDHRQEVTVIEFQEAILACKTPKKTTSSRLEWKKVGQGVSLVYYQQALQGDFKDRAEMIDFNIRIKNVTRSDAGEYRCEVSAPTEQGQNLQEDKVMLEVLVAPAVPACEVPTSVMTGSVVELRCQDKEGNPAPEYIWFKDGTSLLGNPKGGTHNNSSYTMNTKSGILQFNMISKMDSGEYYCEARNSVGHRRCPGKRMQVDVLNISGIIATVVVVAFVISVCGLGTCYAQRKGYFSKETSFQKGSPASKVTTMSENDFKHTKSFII
UniProt O88792: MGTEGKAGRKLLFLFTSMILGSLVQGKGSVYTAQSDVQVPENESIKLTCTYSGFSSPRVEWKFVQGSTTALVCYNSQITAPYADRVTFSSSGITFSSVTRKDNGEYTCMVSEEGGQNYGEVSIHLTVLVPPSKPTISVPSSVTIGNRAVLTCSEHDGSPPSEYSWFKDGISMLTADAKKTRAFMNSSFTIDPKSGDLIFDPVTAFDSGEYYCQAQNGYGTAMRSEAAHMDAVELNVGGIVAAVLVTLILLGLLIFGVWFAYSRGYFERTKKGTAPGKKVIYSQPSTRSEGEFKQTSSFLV

| binding [1] | binding [2] | Binder |
| --- | --- | --- |
| binds | binds | SKVTTMSENDFKHTKSFII (peptide, UniProt Q9JI59 280-298, looked up, biotinylated (position not given)) [biotinylated peptide corresponding to the last 19 amino-acids of JAM-B] |
| binds | binds | SQPSTRSEGEFKQTSSFLV (peptide, UniProt O88792 282-300, looked up, biotinylated (position not given)) [biotinylated C-terminal JAM-A peptide] |

Source: US20130309252A1
